# Reference: the supplement of paper PMC12889115
# This is one part of the list. Values are raw readings; no control value is given beside them.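 First-pass screen: polymyxin B was added at a level that permeabilizes the Salmonella outer membrane while sparing the inner membrane. DMSO wells, with and without polymyxin B, defined maximum growth. Because plates differed from one another, each plate's data were ranked separately and the compounds with the lowest OD600 were carried forward as hits.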
# System: Salmonella enterica serovar Typhimurium SL1344
# Experiment: bacterial growth OD600 after 18 h with compound and polymyxin B; higher = more bacterial growth (less inhibition)
# Details: 50 µM, Mueller-Hinton broth
SMILES,bacterial growth OD600 (polymyxin B 0.75 µg/mL),bacterial growth OD600 (polymyxin B 1 µg/mL)
Cc1cccc(CNC(=O)C2CC23CCN(C(=O)c2cccc(-n4cccn4)c2)CC3)n1 (centres undefined),1.01,
COc1ccc(OCC(O)CN2CCC(O)CC2)c(CN(C)C2CCCCC2)c1 (centres undefined),,0.926
CCn1nc(C)c(CNC2CCN(c3ccc(NC(=O)Cc4ccc(OC)cc4)cc3)CC2)c1C,0.92,
CCn1ccnc1CN(C)CC1CCCN(CCc2ccc(OC)cc2)C1 (centres undefined),0.782,
Cc1nccn1-c1ccc(NC(=O)C2CCCN(C/C=C/c3ccco3)C2)cc1 (centres undefined),0.836,
CC(C)CN1CCC(C2CCN(S(=O)(=O)Cc3ccccc3)C2)CC1 (centres undefined),0.809,
C=CCN(CC=C)Cc1nc(-c2ccc(OCC)cc2)oc1C,0.748,
CC1CCCCN1C(=O)c1ccc(OC2CCN(C(=O)C3CC3)CC2)cc1 (centres undefined),,0.857
COc1ccc(CCN(C)C(=O)COc2ccc(N3CCN(c4ccccn4)CC3)nn2)cc1OC,0.993,
CC(C)n1cc(C(=O)NCC2CCCCC2)c(=O)c(C(=O)N2CCSCC2)c1,0.928,
COc1cc(CC2(CCC(=O)NCCc3nc4cc(Cl)ccc4[nH]3)CCC(=O)N2)ccc1F (centres undefined),0.772,
OC(c1ccc2c(c1)CN(Cc1ccc3c(c1)OCCO3)CCO2)c1c(F)cccc1Cl (centres undefined),0.622,
COc1ccc(C2c3[nH]c4ccccc4c3CCN2C(=O)c2cc(C(C)=O)n[nH]2)c(F)c1 (centres undefined),,0.57
CCOc1ccc(CN2CCOc3ccc(CN4CCC(O)(c5cccnc5)CC4)cc3C2)cc1,1.01,
COc1ccc(CCNC(=O)CCC2(Cc3ccc(Cl)cc3)CCC(=O)N2)cc1OC (centres undefined),0.881,
COCC1CCCN(C(=O)C2CCCN(c3nc(C)c4ccc(OC)cc4n3)C2)C1 (centres undefined),0.704,
COc1ccccc1-c1cn2c(C(=O)NC3CCOC(C)(C)C3)csc2n1 (centres undefined),,1.33
COc1cccc(OCc2nc(C(=O)N(C)C3CCCCC3)co2)c1,,0.916
O=C(Cc1cccnc1)N1CCC(C2CCN(c3ncccn3)CC2)C1 (centres undefined),,0.897

# At a glance, 2 of the compounds above.
SMILES,bacterial growth OD600 (polymyxin B 0.75 µg/mL),bacterial growth OD600 (polymyxin B 1 µg/mL)
C=CCN(CC=C)Cc1nc(-c2ccc(OCC)cc2)oc1C,0.748,
CC1CCCCN1C(=O)c1ccc(OC2CCN(C(=O)C3CC3)CC2)cc1 (centres undefined),,0.857
